Experimental findings from PubChem BioAssay AID248 (DTP/NCI, 2004) are described below.

The list does not hold the whole screen: it is rich in T/C values a quarter to a half above the control, in often repeated tests (any T/C) and in doses without a T/C. Further doses and runs are listed elsewhere. T/C: endpoint of the treated group in % of that of the vehicle group. Some doses have a count of surviving animals in place of a T/C: the source files T/C as zero there, which appears to mark a toxic dose or a test without result, not a measured value. Some survivor counts are full or nearly so, which does not show that the dose was tolerated: survival well below the control is almost never listed, so the zero probably covers shortened survival too. Survivors were counted at the toxicity check, usually on the fifth day, unless a day is given; later deaths do not show. Schedules are NCI's codes, taken here to give the interval after Q, in days (D) or hours (H), and the number of doses after X. Some doses were run more than once; the results are listed from low to high. Some schedules carry Z or #; the key to these is not given. Where survival is the endpoint, the PubChem record calls one and a half times the control and up active, and a quarter to a half above the control has no call in these data; cut-offs in other NCI protocols can differ. Some T/C values are followed by the survivors on the day toxicity was checked, most often the fifth; without a count, all were alive then.

The test system of this assay is L1210 leukemia ip in BDF1 mice, survival T/C. Kind of assay: NCI In Vivo Anticancer Drug Screen. Data for tumor model L1210 Leukemia (intraperitoneal) in B6D2F1 (BDF1) mice. As to conditions: T/C endpoint: mean survival time, higher T/C = longer survival.
[1] abbreviates: dose: 400.0 mg/kg/injection, schedule: Q01DX001 (ip), vehicle: saline.
Where [2] appears, read: dose: 200.0 mg/kg/injection, schedule: Q01DX001 (ip), vehicle: carboxymethylcellulose (CMC).
Where [3] appears, read: dose: 400.0 mg/kg/injection, schedule: Q01DX001 (ip), vehicle: carboxymethylcellulose (CMC).
The mark [4] stands for this setting: dose: 100.0 mg/kg/injection, schedule: Q01DX005 (ip), vehicle: saline.
Where [5] appears, read: dose: 400.0 mg/kg/injection, schedule: Q04DX003 (ip), vehicle: saline.
[6] abbreviates: dose: 200.0 mg/kg/injection, schedule: Q01DX001 (ip), vehicle: saline.
Setting [7] is: dose: 80.0 mg/kg/injection, schedule: Q01DX001 (ip), vehicle: saline.
Where [8] appears, read: dose: 100.0 mg/kg/injection, schedule: Q01DX001 (ip), vehicle: saline.
The mark [9] stands for this setting: dose: 400.0 mg/kg/injection, schedule: Q04DX003 (ip), vehicle: Klucel (hydroxypropylcellulose) (HPC).

Consider `CSc1nc(N)nc2c1ncn2C1OC(CO)C(O)C1O` (centres undefined), for which the T/C (dose: 300.0 mg/kg/injection, schedule: Q01DX009 (ip), vehicle: saline) was 131 % of control; the T/C under setting [1] was 125 and 126 % of control; the T/C (dose: 600.0 mg/kg/injection, schedule: Q01DX001 (ip), vehicle: saline) was 132 % of control [4 of 6 alive].

Regarding `CCOc1ccc2c(ccc(/C=C\c3cc(C)c4cccnc4c3O)[n+]2C)c1`, the survivor count (dose: 100.0 mg/kg/injection, schedule: Q01DX001 (ip), vehicle: carboxymethylcellulose (CMC)) is 5 of 6; the survivor count under setting [2] was 2 of 6; the survivor count under setting [3] was 1 of 6.

In the case of `CN(C)/N=N/c1ncn(C2CCCO2)c1C(N)=O` (centres undefined), the T/C under setting [4] was 125 % of control.

As to `NC(N)=N/N=C/C=C/c1ccco1`, the survivor count (dose: 60.0 mg/kg/injection, schedule: Q01DX Z (oral), vehicle: methylcellulose (MC)) is listed as 3 of 6; the survivor count (dose: 120.0 mg/kg/injection, schedule: Q01DX Z (oral), vehicle: methylcellulose (MC)) is 3 of 6; the survivor count (dose: 240.0 mg/kg/injection, schedule: Q01DX Z (oral), vehicle: methylcellulose (MC)) is recorded as 0 of 6; the survivor count (dose: 480.0 mg/kg/injection, schedule: Q01DX Z (oral), vehicle: methylcellulose (MC)) is 0 of 6.

In the case of `[CH3][Sn]([CH3])([CH3])[O][N+](=O)[O-]`, the survivor count is 0 of 6 (dose: 6.0 mg/kg/injection, schedule: Q04DX003 (ip), vehicle: saline); 0 of 6 (dose: 12.5 mg/kg/injection, schedule: Q04DX003 (ip), vehicle: saline); 0 of 6 (dose: 25.0 mg/kg/injection, schedule: Q04DX003 (ip), vehicle: saline); 0 of 6 (dose: 50.0 mg/kg/injection, schedule: Q04DX003 (ip), vehicle: saline); 0 of 6 (dose: 100.0 mg/kg/injection, schedule: Q04DX003 (ip), vehicle: saline); 0 of 6 (dose: 200.0 mg/kg/injection, schedule: Q04DX003 (ip), vehicle: saline). The survivor count under setting [5] is reported as 0 of 6.

For `O=C(Nc1cc(S(=O)(=O)O)cc2cc(S(=O)(=O)O)c(N=Nc3ccc([As](=O)(O)O)cc3)c(O)c12)c1ccc([N+](=O)[O-])cc1`, the survivor count is, setting by setting: (dose: 100.0 mg/kg/injection, schedule: Q04DX003 (ip), vehicle: saline sonified) 3 of 6; (dose: 400.0 mg/kg/injection, schedule: Q04DX003 (ip), vehicle: saline sonified) 3 of 6.

For `CC(=O)N(C)C1=C(Sc2ccc(Cl)cc2)C(=O)c2ccccc2C1=O`, the survivor count (dose: 300.0 mg/kg/injection, schedule: Q01DX001 (ip), vehicle: carboxymethylcellulose (CMC)) is 2 of 6.

Take `CCOC(=O)c1cc2c(-c3ccccc3)c(-c3ccccc3)c(-c3ccccc3)c(-c3ccccc3)n2n1`: under setting [6], the survivor count is reported as 3 of 3.

As for `O=C1OC(c2cccc(Cl)c2)=N/C1=C\C=C/c1ccccc1`, the survivor count was 6 of 6 under setting [2]; 3 of 3 and 6 of 6 (dose: 400.0 mg/kg/injection, schedule: Q01DX009 (ip), vehicle: carboxymethylcellulose (CMC)).

Consider `O=C(O)c1nc2nc(Cl)c(Cl)nc2[nH]1`, for which the survivor count under setting [5] is recorded as 2 of 6.

As to `CSc1nc(NC(=O)CCl)cc(NC(=O)CCl)n1`, the T/C (dose: 50.0 mg/kg/injection, schedule: Q01DX005 (ip), vehicle: saline) is 132 % of control [5 of 6 alive]. Further, the survivor count under setting [4] was 4 of 6 and the survivor count (dose: 200.0 mg/kg/injection, schedule: Q01DX005 (ip), vehicle: saline) is on record as 0 of 6.

For the molecule `N#CSCC(=O)OC1CCCCC1`, the survivor count under setting [7] is 0 of 6, the survivor count under setting [8] is 0 of 4, the survivor count under setting [6] was 0 of 4 and the survivor count under setting [1] is 0 of 4.

With `O=C1C=C(N2CCCC2)CC1`, the survivor count (dose: 300.0 mg/kg/injection, schedule: Q01DX001 (ip), vehicle: saline) is given as 3 of 6.

As to `Cc1ccc(NC(=S)Nc2ccccc2)cc1`, the survivor count under setting [9] is listed as 6 of 6.

As for `CCN(CC)P(=O)(N1CC1C)N1CC1C` (centres undefined), the T/C is 128 % of control (dose: 12.5 mg/kg/injection, schedule: Q01DX009 (ip), vehicle: saline); 135 % of control (dose: 15.0 mg/kg/injection, schedule: Q01DX015 (ip), vehicle: saline); 126 % of control (dose: 22.0 mg/kg/injection, schedule: Q01DX009 (ip), vehicle: saline); 130 % of control (dose: 22.0 mg/kg/injection, schedule: Q01DX015 (ip), vehicle: saline); 147 % of control (dose: 25.0 mg/kg/injection, schedule: Q01DX009 (ip), vehicle: saline); 149 % of control (dose: 33.0 mg/kg/injection, schedule: Q01DX009 (ip), vehicle: saline). The T/C (dose: 44.0 mg/kg/injection, schedule: Q01DX001 (ip), vehicle: saline) is 127 % of control; the T/C (dose: 66.0 mg/kg/injection, schedule: Q01DX001 (ip), vehicle: saline) is 132 % of control; the T/C (dose: 66.6 mg/kg/injection, schedule: Q01DX001 (ip), vehicle: saline) was 127 % of control [5 of 6 alive]; the T/C (dose: 100.0 mg/kg/injection, schedule: Q01DX001 (ip), vehicle: saline, evaluated on day 30) was 137 % of control; the T/C (dose: 100.0 mg/kg/injection, schedule: Q01DX001 (ip), vehicle: saline, run until all animals had died) is 139, 148, 150 % of control [5 of 6 alive]. For the same molecule, the survivor count (dose: 100.0 mg/kg/injection, schedule: Q01DX009 (ip), vehicle: saline) is on record as 5 of 6; the survivor count (dose: 110.0 mg/kg/injection, schedule: Q01DX009 (ip), vehicle: saline) is reported as 5 of 6; the survivor count (dose: 150.0 mg/kg/injection, schedule: Q01DX001 (ip), vehicle: saline) was 2 of 6 and 3 of 6; the survivor count (dose: 170.0 mg/kg/injection, schedule: Q01DX009 (ip), vehicle: saline) was 2 of 6; the survivor count under setting [6] is given as 5 of 6; the survivor count under setting [1] is 2 of 6.

Consider `O=C1CCCC(=S)N1`, for which the survivor count by setting is: under setting [2], 1 of 4; under setting [3], 2 of 4.

`CCOC1=C(Cl)C(=O)C(OCC)=C(Cl)C1=O`: the survivor count (dose: 18.0 mg/kg/injection, schedule: Q04DX003 (ip), vehicle: DMSO) is 2 of 6; the survivor count (dose: 37.0 mg/kg/injection, schedule: Q04DX003 (ip), vehicle: DMSO) is given as 0 of 6; the survivor count (dose: 75.0 mg/kg/injection, schedule: Q04DX003 (ip), vehicle: DMSO) is 0 of 6; the survivor count (dose: 150.0 mg/kg/injection, schedule: Q04DX003 (ip), vehicle: DMSO) is recorded as 0 of 6; the survivor count (dose: 300.0 mg/kg/injection, schedule: Q01DX001 (ip), vehicle: alcohol) is 2 of 6; the survivor count (dose: 300.0 mg/kg/injection, schedule: Q04DX003 (ip), vehicle: DMSO) is 0 of 6.

For the molecule `O=C(CBr)c1ccccc1`, the survivor count (dose: 40.0 mg/kg/injection, schedule: Q04DX003 (ip), vehicle: saline with Tween-80) was 3 of 6.

With `CC1(C)N=C(N)N=C(N)N1c1cccc(OCCCOc2ccc(N)cc2)c1`, the survivor count under setting [7] is listed as 3 of 6, the survivor count under setting [8] is 0 of 4, the survivor count under setting [6] is reported as 0 of 4 and the survivor count under setting [1] is 0 of 4.

On to `O=C(NCc1ccco1)NCc1ccco1`, for which the survivor count reads like this: (dose: 100.0 mg/kg/injection, schedule: Q01DX009 (ip), vehicle: Klucel (hydroxypropylcellulose) (HPC)) 5 of 6; (dose: 200.0 mg/kg/injection, schedule: Q04DX003 (ip), vehicle: Klucel (hydroxypropylcellulose) (HPC)) 3 of 6; under setting [9], 0 of 6.

`COc1ccc(Br)cc1CC=O`: the T/C under setting [3] was 147 % of control.

Consider `O=C(Nc1ccc(Br)cc1)Oc1ccccc1C(=O)OCc1ccccc1`, for which the survivor count (dose: 400.0 mg/kg/injection, schedule: Q04DX002 (ip), vehicle: Klucel (hydroxypropylcellulose) (HPC)) is given as 3 of 3.
